Test [1] addresses Twin-Strep-tag integrin β1 cytoplasmic tail (human) (UniProt P05556). Briefly: pull-down.
Test [2] concerns the target Twin-Strep-tag integrin β3 cytoplasmic tail (not stated (human or mouse cDNA cloned)) (UniProt P05106). Briefly: pull-down.

Amino acid sequences for entries named in this document (tags omitted). Residues count along the entry.
UniProt P05556, residues 752-798: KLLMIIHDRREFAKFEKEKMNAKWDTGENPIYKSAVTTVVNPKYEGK
UniProt P05106, residues 742-788: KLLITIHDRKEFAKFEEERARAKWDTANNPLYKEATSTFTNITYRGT
UniProt Q96AC1: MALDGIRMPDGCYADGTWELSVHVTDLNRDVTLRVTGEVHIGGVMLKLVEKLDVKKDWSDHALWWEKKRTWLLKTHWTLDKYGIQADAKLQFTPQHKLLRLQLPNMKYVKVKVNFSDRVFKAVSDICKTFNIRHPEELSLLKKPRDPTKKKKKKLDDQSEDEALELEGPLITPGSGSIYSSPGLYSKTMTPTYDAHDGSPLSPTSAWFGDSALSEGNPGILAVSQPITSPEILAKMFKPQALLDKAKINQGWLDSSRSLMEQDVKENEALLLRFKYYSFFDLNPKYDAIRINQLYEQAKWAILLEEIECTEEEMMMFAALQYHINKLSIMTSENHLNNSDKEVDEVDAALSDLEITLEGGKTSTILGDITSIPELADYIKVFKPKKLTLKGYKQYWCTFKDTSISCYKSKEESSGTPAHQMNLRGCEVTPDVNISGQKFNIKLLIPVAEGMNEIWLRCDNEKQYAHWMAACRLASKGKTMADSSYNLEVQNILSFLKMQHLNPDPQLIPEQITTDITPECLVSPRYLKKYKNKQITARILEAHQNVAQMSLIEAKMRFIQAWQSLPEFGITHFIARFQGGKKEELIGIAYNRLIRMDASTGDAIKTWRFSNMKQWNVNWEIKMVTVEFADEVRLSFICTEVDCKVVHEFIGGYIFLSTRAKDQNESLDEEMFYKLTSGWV

No constants are given. Whether binding was seen depends on the method and setting. Some entries that bind do so weakly or less than the wild type.

As to “His6SUMO-kindlin2, full length (from UniProt Q96AC1 1-680)”, the binding result in test [1] and in test [2] was “binds” each time.
